Measurements published in paper PMC5021921.
No constants are given. Whether binding was seen depends on the method and setting. Binding seen in cells or lysates may run through a third protein.

By UniProt entry, the sequences of proteins in these tests, tags left out.
UniProt Q09472: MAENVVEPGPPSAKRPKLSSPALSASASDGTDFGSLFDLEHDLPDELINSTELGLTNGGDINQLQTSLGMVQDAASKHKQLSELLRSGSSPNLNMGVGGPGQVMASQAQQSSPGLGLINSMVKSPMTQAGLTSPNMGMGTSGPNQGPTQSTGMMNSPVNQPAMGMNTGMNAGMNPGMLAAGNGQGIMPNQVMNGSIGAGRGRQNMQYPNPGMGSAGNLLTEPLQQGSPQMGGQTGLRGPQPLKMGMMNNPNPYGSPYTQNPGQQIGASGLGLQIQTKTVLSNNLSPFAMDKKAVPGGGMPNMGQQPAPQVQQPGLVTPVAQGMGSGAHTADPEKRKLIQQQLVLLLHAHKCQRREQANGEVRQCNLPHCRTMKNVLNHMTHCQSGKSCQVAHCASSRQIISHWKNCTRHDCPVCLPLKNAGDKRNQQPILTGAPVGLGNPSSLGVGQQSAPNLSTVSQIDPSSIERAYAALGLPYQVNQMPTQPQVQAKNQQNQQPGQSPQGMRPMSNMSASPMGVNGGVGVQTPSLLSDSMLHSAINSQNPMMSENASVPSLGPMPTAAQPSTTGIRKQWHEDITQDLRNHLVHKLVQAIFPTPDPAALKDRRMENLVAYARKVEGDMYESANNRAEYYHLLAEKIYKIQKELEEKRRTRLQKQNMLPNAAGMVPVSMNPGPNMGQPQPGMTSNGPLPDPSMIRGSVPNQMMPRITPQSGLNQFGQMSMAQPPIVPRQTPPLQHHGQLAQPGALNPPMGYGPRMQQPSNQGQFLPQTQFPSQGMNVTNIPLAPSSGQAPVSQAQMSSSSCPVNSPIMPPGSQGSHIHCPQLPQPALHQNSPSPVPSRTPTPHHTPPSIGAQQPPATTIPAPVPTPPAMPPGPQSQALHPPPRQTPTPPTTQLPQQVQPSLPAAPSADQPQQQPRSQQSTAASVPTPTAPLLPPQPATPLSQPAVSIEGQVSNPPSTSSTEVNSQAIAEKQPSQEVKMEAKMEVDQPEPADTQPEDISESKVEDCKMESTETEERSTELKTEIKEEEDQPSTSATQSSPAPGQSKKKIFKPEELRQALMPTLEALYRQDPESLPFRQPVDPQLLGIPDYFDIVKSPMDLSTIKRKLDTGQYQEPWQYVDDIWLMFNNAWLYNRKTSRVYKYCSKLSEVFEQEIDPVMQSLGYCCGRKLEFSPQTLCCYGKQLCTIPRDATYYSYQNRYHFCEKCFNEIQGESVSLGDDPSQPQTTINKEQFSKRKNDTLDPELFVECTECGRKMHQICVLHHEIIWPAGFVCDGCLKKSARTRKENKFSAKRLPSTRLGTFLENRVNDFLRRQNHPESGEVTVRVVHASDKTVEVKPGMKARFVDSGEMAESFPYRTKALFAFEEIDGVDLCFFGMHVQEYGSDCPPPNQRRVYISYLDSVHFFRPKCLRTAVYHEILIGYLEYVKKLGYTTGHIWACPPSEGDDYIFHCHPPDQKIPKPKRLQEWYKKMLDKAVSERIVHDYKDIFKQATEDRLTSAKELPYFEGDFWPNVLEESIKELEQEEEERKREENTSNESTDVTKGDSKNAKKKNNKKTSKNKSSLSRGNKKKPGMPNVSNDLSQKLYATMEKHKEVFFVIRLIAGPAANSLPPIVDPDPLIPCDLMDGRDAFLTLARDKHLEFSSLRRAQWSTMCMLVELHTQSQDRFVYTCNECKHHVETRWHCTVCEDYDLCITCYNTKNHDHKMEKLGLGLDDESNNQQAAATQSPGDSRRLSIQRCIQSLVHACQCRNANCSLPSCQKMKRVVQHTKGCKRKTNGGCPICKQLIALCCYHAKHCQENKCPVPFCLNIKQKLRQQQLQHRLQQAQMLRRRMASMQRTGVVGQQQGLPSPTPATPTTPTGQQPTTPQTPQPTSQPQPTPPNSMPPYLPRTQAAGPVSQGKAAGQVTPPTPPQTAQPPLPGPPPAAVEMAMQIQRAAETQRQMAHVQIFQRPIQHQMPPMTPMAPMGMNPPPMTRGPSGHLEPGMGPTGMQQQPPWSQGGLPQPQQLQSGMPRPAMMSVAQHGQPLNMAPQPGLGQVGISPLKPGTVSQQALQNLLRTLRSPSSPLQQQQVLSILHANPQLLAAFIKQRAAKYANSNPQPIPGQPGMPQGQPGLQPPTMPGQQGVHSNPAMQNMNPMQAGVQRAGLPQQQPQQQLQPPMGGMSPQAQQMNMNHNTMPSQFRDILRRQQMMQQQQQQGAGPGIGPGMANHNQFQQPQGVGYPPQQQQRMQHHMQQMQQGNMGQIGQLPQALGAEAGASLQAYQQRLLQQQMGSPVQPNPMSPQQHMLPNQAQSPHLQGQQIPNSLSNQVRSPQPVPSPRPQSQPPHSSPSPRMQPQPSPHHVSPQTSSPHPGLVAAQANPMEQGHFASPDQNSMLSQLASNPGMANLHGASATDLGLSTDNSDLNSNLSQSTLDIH
UniProt Q02080: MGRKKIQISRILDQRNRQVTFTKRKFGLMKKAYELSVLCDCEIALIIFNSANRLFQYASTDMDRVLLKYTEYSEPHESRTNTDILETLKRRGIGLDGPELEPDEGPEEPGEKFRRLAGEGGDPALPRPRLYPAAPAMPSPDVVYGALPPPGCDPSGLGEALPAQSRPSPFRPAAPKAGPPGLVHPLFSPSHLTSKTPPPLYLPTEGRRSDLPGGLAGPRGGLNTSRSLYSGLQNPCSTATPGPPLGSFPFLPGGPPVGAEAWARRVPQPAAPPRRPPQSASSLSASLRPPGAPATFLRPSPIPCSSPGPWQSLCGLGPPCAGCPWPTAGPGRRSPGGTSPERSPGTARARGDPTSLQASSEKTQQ

Target: HA-p300 (UniProt Q09472)
Assay: co-IP; HeLa cells transfected with HA-p300, treated with 100 ng/ml EGF for 3 h; lysates immunoprecipitated with agarose-conjugated anti-HA antibody, Western blot with anti-MEF2B

binding: no binding
Substance: myocyte enhancer factor 2B (MEF2B) (from UniProt Q02080 1-365)
